Reference: US20040053231A1
Results are given in words; binding and its absence hold for the method and conditions named. In cells and extracts the contact can be indirect. Some binding calls cover weakened binding; strength is not graded here.

The chains behind the UniProt entries cited, without tags or fusion partners. Residues count along the entry.
UniProt Q09472, residues 300-528: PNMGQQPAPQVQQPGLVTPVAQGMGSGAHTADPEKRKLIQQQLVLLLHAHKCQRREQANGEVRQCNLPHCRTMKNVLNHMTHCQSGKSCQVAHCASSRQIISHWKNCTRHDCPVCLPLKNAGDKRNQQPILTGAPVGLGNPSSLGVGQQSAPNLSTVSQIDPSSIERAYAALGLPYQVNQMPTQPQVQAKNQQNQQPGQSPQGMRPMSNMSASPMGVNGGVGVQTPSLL

Target: GST-p300CH1 (p300 residues 300-528) (UniProt Q09472)
Assay: competition in GST-p300CH1 pull-down; GST-CH1 pre-incubated with the peptide, competitor of 35S-labelled SREBP2

binding: binds
Binder: DEEALTSLELELGLHRVRELPELFLGQSEFDCF
